According to the supplement of paper PMC10849652:
The other results are listed elsewhere or left out.

Amino acid sequences for entries named in this document (tags omitted). A change or cut given only in a name is not applied to a line headed by its entry.
UniProt O00425, whole entry, looked up: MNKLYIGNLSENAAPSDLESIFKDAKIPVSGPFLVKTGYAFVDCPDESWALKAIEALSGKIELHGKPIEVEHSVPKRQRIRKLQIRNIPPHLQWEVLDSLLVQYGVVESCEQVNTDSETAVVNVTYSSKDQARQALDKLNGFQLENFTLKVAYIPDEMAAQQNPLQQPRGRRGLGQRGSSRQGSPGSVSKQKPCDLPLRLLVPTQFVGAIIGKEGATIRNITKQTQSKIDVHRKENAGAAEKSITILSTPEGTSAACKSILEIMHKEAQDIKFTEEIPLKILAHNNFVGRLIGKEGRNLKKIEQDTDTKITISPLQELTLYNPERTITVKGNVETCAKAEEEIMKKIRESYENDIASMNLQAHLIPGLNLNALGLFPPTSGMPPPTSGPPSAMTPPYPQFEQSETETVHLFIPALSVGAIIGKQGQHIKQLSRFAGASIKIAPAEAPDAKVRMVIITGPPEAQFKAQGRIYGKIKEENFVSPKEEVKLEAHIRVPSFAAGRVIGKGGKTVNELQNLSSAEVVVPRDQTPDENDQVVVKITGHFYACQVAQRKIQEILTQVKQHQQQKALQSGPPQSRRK
UniProt C9J406: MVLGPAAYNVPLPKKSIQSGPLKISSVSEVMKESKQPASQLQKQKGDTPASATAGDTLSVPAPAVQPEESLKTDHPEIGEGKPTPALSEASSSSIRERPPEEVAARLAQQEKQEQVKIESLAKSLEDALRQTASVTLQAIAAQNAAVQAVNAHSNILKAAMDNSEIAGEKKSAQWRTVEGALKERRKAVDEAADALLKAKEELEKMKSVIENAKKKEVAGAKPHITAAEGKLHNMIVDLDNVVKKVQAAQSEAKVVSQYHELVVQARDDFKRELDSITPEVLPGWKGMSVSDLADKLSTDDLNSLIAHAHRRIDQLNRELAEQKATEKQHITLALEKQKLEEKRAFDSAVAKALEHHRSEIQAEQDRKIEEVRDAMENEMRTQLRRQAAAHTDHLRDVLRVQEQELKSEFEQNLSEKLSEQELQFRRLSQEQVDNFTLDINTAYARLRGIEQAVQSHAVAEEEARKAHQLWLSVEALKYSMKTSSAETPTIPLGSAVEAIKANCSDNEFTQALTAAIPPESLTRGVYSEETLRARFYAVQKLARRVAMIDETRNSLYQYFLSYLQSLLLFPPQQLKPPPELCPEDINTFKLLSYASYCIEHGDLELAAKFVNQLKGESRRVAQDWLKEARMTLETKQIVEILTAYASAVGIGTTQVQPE
UniProt A1L0T0: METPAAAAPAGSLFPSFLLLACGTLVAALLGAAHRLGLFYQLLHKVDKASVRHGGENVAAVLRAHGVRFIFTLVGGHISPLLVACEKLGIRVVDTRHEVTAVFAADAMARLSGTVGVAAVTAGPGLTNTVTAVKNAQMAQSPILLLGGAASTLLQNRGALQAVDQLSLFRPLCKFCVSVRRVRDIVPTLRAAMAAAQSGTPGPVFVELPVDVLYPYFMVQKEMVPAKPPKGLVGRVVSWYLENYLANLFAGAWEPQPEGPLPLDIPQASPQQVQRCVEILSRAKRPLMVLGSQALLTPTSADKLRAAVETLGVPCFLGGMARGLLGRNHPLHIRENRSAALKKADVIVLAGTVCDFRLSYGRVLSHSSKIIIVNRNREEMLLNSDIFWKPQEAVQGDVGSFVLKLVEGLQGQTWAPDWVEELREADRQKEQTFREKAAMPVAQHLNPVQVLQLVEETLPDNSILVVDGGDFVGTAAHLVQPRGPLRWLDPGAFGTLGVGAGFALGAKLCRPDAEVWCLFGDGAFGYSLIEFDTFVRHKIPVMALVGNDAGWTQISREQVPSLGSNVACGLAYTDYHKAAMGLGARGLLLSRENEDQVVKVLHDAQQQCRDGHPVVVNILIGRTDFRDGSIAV
UniProt P38935: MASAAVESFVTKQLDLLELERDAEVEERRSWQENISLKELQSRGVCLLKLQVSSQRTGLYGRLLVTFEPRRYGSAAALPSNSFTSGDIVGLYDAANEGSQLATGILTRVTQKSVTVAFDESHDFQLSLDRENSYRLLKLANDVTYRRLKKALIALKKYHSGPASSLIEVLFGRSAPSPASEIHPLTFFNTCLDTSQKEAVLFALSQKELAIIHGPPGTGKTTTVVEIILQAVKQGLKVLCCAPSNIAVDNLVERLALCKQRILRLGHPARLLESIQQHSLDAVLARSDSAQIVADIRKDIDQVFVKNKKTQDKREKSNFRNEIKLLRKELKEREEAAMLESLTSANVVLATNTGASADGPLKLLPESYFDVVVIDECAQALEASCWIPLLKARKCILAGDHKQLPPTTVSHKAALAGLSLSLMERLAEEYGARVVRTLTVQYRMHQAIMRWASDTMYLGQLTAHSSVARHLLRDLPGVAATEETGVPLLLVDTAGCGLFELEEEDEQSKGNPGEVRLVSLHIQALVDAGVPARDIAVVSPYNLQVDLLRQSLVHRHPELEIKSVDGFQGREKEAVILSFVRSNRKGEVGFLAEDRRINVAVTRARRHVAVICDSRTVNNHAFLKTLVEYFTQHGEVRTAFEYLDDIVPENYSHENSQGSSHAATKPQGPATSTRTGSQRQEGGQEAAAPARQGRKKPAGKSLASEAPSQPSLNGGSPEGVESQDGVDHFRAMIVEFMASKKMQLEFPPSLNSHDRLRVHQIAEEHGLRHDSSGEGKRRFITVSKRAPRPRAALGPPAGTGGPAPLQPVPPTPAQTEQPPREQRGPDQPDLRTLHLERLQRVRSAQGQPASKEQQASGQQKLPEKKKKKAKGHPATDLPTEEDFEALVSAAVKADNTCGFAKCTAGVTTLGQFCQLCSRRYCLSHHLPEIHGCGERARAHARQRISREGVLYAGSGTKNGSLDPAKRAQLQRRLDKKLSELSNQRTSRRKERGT
UniProt Q9NX55: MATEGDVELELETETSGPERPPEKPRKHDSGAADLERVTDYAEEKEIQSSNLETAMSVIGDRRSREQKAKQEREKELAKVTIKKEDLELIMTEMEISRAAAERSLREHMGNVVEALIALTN
UniProt P20839, whole entry, looked up: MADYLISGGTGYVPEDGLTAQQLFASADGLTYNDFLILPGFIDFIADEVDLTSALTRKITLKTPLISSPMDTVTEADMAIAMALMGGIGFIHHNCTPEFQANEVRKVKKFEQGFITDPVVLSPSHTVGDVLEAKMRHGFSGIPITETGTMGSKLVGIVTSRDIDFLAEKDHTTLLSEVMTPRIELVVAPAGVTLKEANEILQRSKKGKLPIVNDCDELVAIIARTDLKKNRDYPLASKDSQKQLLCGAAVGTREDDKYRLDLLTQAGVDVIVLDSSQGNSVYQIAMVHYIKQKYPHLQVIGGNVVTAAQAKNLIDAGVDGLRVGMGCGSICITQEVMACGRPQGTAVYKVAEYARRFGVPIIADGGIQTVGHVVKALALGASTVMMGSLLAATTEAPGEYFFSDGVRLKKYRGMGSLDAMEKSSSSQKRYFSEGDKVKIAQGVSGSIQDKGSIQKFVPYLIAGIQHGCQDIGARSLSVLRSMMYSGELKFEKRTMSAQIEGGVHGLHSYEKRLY
UniProt Q12905: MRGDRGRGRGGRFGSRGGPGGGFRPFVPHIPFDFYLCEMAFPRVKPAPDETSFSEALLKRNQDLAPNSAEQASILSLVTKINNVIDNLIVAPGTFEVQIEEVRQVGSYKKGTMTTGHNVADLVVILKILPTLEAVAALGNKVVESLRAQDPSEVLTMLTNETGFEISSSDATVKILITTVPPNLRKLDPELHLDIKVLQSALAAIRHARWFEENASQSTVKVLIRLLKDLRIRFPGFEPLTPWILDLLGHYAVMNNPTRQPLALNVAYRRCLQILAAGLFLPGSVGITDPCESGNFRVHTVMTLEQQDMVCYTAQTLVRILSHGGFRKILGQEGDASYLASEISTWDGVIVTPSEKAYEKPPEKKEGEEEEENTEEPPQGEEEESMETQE
UniProt Q9Y6M1: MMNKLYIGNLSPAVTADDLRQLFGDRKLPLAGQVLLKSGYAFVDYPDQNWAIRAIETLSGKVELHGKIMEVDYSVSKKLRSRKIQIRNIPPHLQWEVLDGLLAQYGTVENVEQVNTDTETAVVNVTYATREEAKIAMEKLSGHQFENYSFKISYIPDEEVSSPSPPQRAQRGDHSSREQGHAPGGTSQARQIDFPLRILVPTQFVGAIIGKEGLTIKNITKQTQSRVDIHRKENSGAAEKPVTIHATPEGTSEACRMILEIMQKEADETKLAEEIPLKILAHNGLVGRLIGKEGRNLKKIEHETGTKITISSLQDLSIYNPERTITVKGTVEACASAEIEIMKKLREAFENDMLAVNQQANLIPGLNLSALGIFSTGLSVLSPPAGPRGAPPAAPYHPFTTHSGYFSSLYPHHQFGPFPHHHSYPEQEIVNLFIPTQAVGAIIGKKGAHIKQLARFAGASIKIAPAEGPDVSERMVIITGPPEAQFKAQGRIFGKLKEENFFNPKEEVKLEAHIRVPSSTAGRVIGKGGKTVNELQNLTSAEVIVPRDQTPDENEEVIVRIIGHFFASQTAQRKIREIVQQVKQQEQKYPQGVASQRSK
UniProt Q9NVR2, whole entry, looked up: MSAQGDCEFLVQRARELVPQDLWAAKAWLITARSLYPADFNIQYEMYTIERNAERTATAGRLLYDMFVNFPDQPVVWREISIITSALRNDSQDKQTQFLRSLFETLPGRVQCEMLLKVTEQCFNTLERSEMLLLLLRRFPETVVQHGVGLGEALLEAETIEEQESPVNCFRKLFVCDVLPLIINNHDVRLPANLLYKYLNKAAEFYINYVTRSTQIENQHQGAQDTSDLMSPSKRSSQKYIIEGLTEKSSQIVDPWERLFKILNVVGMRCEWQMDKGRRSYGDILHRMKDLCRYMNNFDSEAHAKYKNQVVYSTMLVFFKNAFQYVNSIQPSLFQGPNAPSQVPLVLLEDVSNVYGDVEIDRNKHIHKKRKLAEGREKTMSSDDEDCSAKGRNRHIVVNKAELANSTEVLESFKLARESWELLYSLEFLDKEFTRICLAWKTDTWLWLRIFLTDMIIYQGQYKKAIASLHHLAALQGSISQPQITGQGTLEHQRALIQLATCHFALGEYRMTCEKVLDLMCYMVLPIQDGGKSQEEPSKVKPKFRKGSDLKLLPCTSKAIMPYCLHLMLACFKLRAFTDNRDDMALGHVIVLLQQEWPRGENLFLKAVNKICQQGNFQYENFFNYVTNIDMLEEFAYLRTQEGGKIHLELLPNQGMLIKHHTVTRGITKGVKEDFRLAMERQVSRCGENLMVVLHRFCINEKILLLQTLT
UniProt P38646: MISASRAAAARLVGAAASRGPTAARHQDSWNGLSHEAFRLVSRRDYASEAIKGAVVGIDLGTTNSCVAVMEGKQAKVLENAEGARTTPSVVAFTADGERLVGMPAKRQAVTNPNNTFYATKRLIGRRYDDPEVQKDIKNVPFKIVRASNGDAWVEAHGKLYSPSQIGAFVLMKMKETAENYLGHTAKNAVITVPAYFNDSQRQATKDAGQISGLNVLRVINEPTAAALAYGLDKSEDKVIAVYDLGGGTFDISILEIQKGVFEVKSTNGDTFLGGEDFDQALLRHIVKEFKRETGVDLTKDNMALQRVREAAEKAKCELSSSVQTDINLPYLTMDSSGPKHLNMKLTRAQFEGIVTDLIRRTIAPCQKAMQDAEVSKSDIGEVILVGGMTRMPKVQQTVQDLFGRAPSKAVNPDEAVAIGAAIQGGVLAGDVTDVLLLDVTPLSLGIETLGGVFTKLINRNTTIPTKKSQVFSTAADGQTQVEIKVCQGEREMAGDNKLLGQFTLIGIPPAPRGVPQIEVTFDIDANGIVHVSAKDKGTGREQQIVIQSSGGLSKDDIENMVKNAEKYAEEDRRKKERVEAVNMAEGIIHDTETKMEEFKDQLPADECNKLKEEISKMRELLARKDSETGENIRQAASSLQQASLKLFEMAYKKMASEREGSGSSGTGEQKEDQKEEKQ
UniProt Q9BUP3: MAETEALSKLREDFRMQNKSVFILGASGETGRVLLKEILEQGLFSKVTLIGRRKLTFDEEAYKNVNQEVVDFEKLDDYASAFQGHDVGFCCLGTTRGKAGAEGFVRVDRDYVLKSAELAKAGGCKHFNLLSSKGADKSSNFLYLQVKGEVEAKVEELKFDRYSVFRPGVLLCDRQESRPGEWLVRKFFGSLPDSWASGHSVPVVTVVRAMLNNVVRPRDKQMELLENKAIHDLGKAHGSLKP
UniProt O00458: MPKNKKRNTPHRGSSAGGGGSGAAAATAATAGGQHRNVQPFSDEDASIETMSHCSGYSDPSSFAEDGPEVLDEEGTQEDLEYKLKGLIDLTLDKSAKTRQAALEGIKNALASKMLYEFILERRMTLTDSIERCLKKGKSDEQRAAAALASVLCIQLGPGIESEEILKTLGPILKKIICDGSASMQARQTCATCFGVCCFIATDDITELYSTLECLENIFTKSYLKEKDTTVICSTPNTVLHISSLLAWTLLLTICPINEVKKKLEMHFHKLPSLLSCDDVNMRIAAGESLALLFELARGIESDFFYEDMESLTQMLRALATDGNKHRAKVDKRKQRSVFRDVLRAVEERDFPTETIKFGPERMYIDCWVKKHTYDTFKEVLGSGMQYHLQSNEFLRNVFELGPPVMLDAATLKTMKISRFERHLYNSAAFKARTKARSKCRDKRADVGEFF

Tests used:
Assay in all cases: log2 fold change, soluble protein after heating vs DMSO (PISA); higher = thermal stabilisation; K562 lysate, 10 uM; active = over 0.2 and 3.5 SD of the protein, either way, in both replicates (recomputed)
nilotinib = compound: Cc1cn(-c2cc(NC(=O)c3ccc(C)c(Nc4nccc(-c5cccnc5)n4)c3)cc(C(F)(F)F)c2)cn1 [nilotinib]
How it was run: (§1)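 Quantification was by TMTpro 16plex LC-MS/MS with equalised channel sums, applied to the supernatant after 21,000xg for 90 min. Samples were crude K562 extract at 1 mg/mL protein in PBS pH 7.4 with 1 mM MgCl2, treated with 10 μM compound for 30 min, heated for 3 min across 48°C-58°C, pooled and brought to 0.5% NP-40 at 4°C. Values are log-two fold changes in thermal stability relative to solvent controls, from duplicates.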

[1] = compound: Cc1nc(Nc2n[nH]c3c2CN(C(=O)N[C@H](CN(C)C)c2ccccc2)C3(C)C)c2sccc2n1
How it was run: as §1

dasatinib = compound: Cc1nc(Nc2ncc(C(=O)Nc3c(C)cccc3Cl)s2)cc(N2CCN(CCO)CC2)n1 [dasatinib]
How it was run: as §1

[2] = compound: Cc1ncc(-c2ccnc(Nc3ccc(S(C)(=O)=O)cc3)n2)n1C(C)C
How it was run: as §1

[3] = compound: Cn1cc(-c2ccc3c(c2)CCN3C(=O)Cc2cccc(C(F)(F)F)c2)c2c(N)ncnc21
How it was run: as §1

quisinostat = compound: Cn1cc(CNCC2CCN(c3ncc(C(=O)NO)cn3)CC2)c2ccccc21 [quisinostat]
How it was run: as §1

tipifarnib = compound: Cn1cncc1[C@@](N)(c1ccc(Cl)cc1)c1ccc2c(c1)c(-c1cccc(Cl)c1)cc(=O)n2C [tipifarnib]
How it was run: as §1

[4] = compound: NC(=O)Nc1cc(-c2cccc(F)c2)sc1C(=O)N[C@H]1CCCNC1
How it was run: as §1

[5] = compound: NC(=O)c1cnc(N[C@@H]2CCCC[C@@H]2N)nc1Nc1cccc(-n2nccn2)c1
How it was run: as §1

[6] = compound: NC1(c2ccc(-c3nc4ccn5c(=O)[nH]nc5c4cc3-c3ccccc3)cc2)CCC1
How it was run: as §1

Measured: log2 fold change

IKBIP isoform 4 (UniProt Q70UQ0)
inactive: nilotinib 0.016 | [1] 0.024 | dasatinib 0.009 | [2] -0.005 | [3] 0.01 | quisinostat -0.032 | tipifarnib -0.043 | [4] 0.007 | [5] 0.007 | [6] -0.014

IL18 (UniProt Q14116)
inactive: nilotinib 0.002 | [1] -0.012 | dasatinib 0.035 | [2] -0.039 | [3] -0.011 | quisinostat -0.033 | tipifarnib 0.011 | [4] 0.009 | [5] 0.024 | [6] 0.001

IGF2BP3 (UniProt O00425)
inactive: nilotinib -0.046 | [1] 0.008 | dasatinib -0.035 | [2] 0.006 | [3] 0.063 | quisinostat -0.045 | tipifarnib 0.008 | [4] 0.039 | [5] 0.013 | [6] -0.027

IMMT (UniProt C9J406)
inactive: nilotinib -0.044 | [1] 0.09 | dasatinib 0.045 | [2] 0.012 | [3] 0.051 | quisinostat 0.022 | tipifarnib -0.03 | [4] 0 | [5] 0.023 | [6] -0.038

IFI30 (UniProt P13284)
inactive: nilotinib -0.005 | [1] -0.002 | dasatinib 0.057 | [2] 0.048 | [3] -0.001 | quisinostat -0.146 | tipifarnib 0.033 | [4] -0.007 | [5] 0.033 | [6] -0.003

INTS12 (UniProt Q96CB8)
inactive: nilotinib -0.028 | [1] 0.033 | dasatinib 0.027 | [2] -0.084 | [3] -0.08 | quisinostat -0.037 | tipifarnib -0.028 | [4] 0.067 | [5] 0.037 | [6] -0.01

INPP5B (UniProt P32019)
inactive: nilotinib -0.027 | [1] 0.024 | dasatinib -0.021 | [2] -0.003 | [3] 0.047 | quisinostat -0.04 | tipifarnib 0.006 | [4] 0.026 | [5] -0.003 | [6] 0.001

ILVBL (UniProt A1L0T0)
inactive: nilotinib 0.068 | [1] 0.066 | dasatinib -0.014 | [2] 0.05 | [3] -0.014 | quisinostat 0.082 | tipifarnib -0.04 | [4] 0 | [5] -0.106 | [6] -0.017

IK (UniProt Q13123)
inactive: nilotinib -0.066 | [1] 0.002 | dasatinib 0.017 | [2] -0.019 | [3] 0.002 | quisinostat -0.009 | tipifarnib -0.041 | [4] 0.03 | [5] -0.015 | [6] 0.01

IGHMBP2 (UniProt P38935)
inactive: nilotinib -0.081 | [1] 0.018 | dasatinib -0.067 | [2] -0.002 | [3] -0.039 | quisinostat -0.097 | tipifarnib -0.043 | [4] 0.147 | [5] -0.082 | [6] -0.06

IL18R1 (UniProt Q13478)
inactive: nilotinib 0.02 | [1] 0.136 | dasatinib 0.181 | [2] -0.108 | [3] 0.004 | quisinostat 0.067 | tipifarnib 0.118 | [4] 0.155 | [5] -0.055 | [6] 0.211

IDH2 (UniProt P48735)
inactive: nilotinib 0.013 | [1] -0.013 | dasatinib -0.152 | [2] 0.01 | [3] 0.064 | quisinostat -0.021 | tipifarnib -0.013 | [4] 0.044 | [5] 0.011 | [6] 0.004

INTS13 (UniProt Q9NVM9)
inactive: nilotinib -0.032 | [1] 0.017 | dasatinib -0.04 | [2] -0.019 | [3] 0.027 | quisinostat 0.002 | tipifarnib 0 | [4] 0.031 | [5] 0.001 | [6] 0.028

HYPK (UniProt Q9NX55)
inactive: nilotinib 0.074 | [1] -0.032 | dasatinib 0.006 | [2] 0.032 | [3] 0.009 | quisinostat 0.085 | tipifarnib 0.041 | [4] 0.008 | [5] -0.007 | [6] 0.01

HSPBAP1 (UniProt Q96EW2)
inactive: nilotinib 0.1 | [1] 0.039 | dasatinib 0.011 | [2] 0.14 | [3] 0.213 | quisinostat -0.07 | tipifarnib 0.056 | [4] 0.024 | [5] -0.056 | [6] 0.032

ICAM5 (UniProt Q9UMF0)
inactive: nilotinib -0.016 | [1] 0.055 | dasatinib 0.054 | [2] 0.036 | [3] -0.01 | quisinostat -0.022 | tipifarnib -0.071 | [4] 0.052 | [5] 0.022 | [6] -0.042

IFT57 (UniProt Q9NWB7)
inactive: nilotinib -0.03 | [1] -0.006 | dasatinib -0.103 | [2] -0.12 | [3] -0.108 | quisinostat -0.028 | tipifarnib 0.114 | [4] 0.06 | [5] -0.05 | [6] -0.097

IMPDH1 isoform 6 (UniProt P20839)
inactive: nilotinib 0.008 | [1] -0.034 | dasatinib -0.033 | [2] 0.015 | [3] -0.006 | quisinostat -0.121 | tipifarnib -0.017 | [4] -0.007 | [5] -0.008 | [6] -0.012

ILF2 (UniProt Q12905)
inactive: nilotinib -0.002 | [1] 0.007 | dasatinib 0.003 | [2] 0.006 | [3] 0.001 | quisinostat -0.002 | tipifarnib 0.005 | [4] 0.018 | [5] -0.006 | [6] -0.022

HTATSF1 (UniProt O43719)
inactive: nilotinib -0.036 | [1] 0.021 | dasatinib 0.024 | [2] -0.006 | [3] -0.002 | quisinostat 0 | tipifarnib -0.007 | [4] -0.022 | [5] 0.011 | [6] 0.003

IGF2BP2 (UniProt Q9Y6M1)
inactive: nilotinib -0.051 | [1] 0.008 | dasatinib -0.055 | [2] -0.008 | [3] 0.031 | quisinostat 0.012 | tipifarnib 0.028 | [4] 0.06 | [5] 0.016 | [6] 0.019

INTS10 (UniProt Q9NVR2)
inactive: nilotinib -0.01 | [1] -0.025 | dasatinib -0.054 | [2] -0.024 | [3] 0.109 | quisinostat -0.034 | tipifarnib -0.021 | [4] 0.011 | [5] 0.039 | [6] 0.028

Quoted at random: two records from the list
INTS10 (UniProt Q9NVR2)
inactive: nilotinib -0.01 | [1] -0.025 | dasatinib -0.054 | [2] -0.024 | [3] 0.109 | quisinostat -0.034 | tipifarnib -0.021 | [4] 0.011 | [5] 0.039 | [6] 0.028

ILF2 (UniProt Q12905)
inactive: nilotinib -0.002 | [1] 0.007 | dasatinib 0.003 | [2] 0.006 | [3] 0.001 | quisinostat -0.002 | tipifarnib 0.005 | [4] 0.018 | [5] -0.006 | [6] -0.022

(further entries)

HSPA9 (UniProt P38646)
inactive: nilotinib -0.009 | [1] 0.006 | dasatinib 0.018 | [2] 0.007 | [3] -0.006 | quisinostat 0.059 | tipifarnib 0.019 | [4] -0.011 | [5] 0.014 | [6] 0.015

HTATIP2 isoform 3 (UniProt Q9BUP3)
inactive: nilotinib -0.002 | [1] 0.004 | dasatinib 0.031 | [2] -0.005 | [3] 0.006 | quisinostat -0.07 | tipifarnib -0.05 | [4] 0.035 | [5] 0.026 | [6] -0.004

HSPG2 (UniProt P98160)
inactive: nilotinib -0.043 | [1] -0.052 | dasatinib -0.019 | [2] -0.08 | [3] 0.024 | quisinostat -0.043 | tipifarnib 0.061 | [4] -0.018 | [5] 0.029 | [6] -0.03

IMPDH2 (UniProt P12268)
inactive: nilotinib 0 | [1] -0.009 | dasatinib -0.036 | [2] -0.009 | [3] 0.004 | quisinostat -0.073 | tipifarnib 0.029 | [4] 0.006 | [5] -0.016 | [6] 0.031

IFRD1 (UniProt O00458)
inactive: nilotinib 0.01 | [1] -0.007 | dasatinib 0.036 | [2] -0.018 | [3] 0.042 | quisinostat -0.005 | tipifarnib 0.005 | [4] 0.002 | [5] -0.016 | [6] -0.026
